Results reported in US20230123135A1 (priority 2020, published 2023).
At least one structure is not confirmed: it was looked up by name or label, or the drawing left a doubt.

How the values were obtained:
LPS-induced ARDS model = test system: LPS-induced ARDS model; design: species or system Mus musculus (BALB/c); conditions: mouse, in vivo
IL-1β = assay type: cell-based, rat
TNF-α = assay type: cell-based, rat
IL-6 = assay type: cell-based, rat

SMILES: C[C@@H]1C[C@H]2[C@@H]3CCC4=CC(=O)C=C[C@]4(C)[C@@]3(F)[C@@H](O)C[C@]2(C)[C@@]1(O)C(=O)CO [Dexamethasone]
- survival compared to the negative control group (G1) (LPS-induced ARDS model): extended

SMILES: Cc1ccc(-c2cc(C(F)(F)F)nn2-c2ccc(S(N)(=O)=O)cc2)cc1 [celecoxib, reference compound]
- secretion of IL-1β (IL-1β): successfully inhibited
- secretion of TNF-α (TNF-α): successfully inhibited
- secretion of IL-6 (IL-6): successfully inhibited
